Test results: US20120101147A1, “INHIBITION OF HDAC2 TO PROMOTE MEMORY” (The General Hospital Corporation d/b/a Massachusetts …, priority 2008, published 2012)
Some of these results come from one statement about several compounds together.

Experiments:
[1] = tested on: tetra-acetylated H4; test: Western blot of tetra-acetylated H4 in primary striatal cells; format: cell-based, mouse; details: 1 and 10 uM
Protocol: (§1) Four compounds were tested including CI-994 (BRD-3696) and SAHA. […] BRD-6929 and BRD-5298 treatment results in a 2-5 fold increase in both marks at 1 and 10 uM.

[2] = tested on: tetra-acetylated H2B; test: Western blot of tetra-acetylated H2B in primary striatal cells; format: cell-based, mouse; details: 1 and 10 uM
Protocol: as §1

Compound	increase in tetra-acetylated H4 [1]	increase in tetra-acetylated H2B [2]
CN1CCN(CCNC(=O)c2ccc(C(=O)Nc3cc(-c4cccs4)ccc3N)cc2)CC1 [BRD-5298, N1-(2-amino-5-(thiophen-2-yl)phenyl)-N4-(2-(4-methylpiperazin-1-yl)ethyl)terephthalamide]	2-5 fold	2-5 fold
CC(=O)Nc1ccc(C(=O)Nc2cc(-c3cccs3)ccc2N)cc1 [BRD-6929, 4-acetamido-N-(2-amino-5-(thiophen-2-yl)phenyl)benzamide]	2-5 fold	2-5 fold
